PubChem BioAssay AID624297 (National Center for Advancing Translational Sciences (NCATS), 2012)
The campaign covered roughly 340,000 compounds. About 6,200 (1.8%) were called active. Inconclusive means that the source gave no clear call. Such entries were picked first, then a sample of the others. Calls follow the shape of the dose curve; as a rule, active = well fitted activation curve with a large enough effect; inconclusive = small, poorly fitted or top-dose-only effect; inactive = no such curve, though single readings can be large or run the other way. A potency beside an inconclusive call is a rough fit, not a confirmed value.

Assay: A quantitative high throughput screen for small molecules that induce DNA re-replication in SW480 colon adenocarcinoma cells. Also: nearly all actives have a fitted effect of over 55% in size. As to re-replication activation: % of control where 0% means no effect.
Conditions: Hoechst DNA content imaging, 48 h; re-replication activation: at 46.1 µM (top of the series) unless noted
How it was run: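 Image-based DNA-content assay: after two days of treatment, nuclei were labelled with the DNA dye Hoechst and imaged, and hits were compounds raising the count of nuclei showing high fluorescence intensity.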
Potency is read from the fitted curve at half-maximal effect.

SMILES | Potency | re-replication activation
O=C(NC(=S)Nc1ccc(CN2CCCCC2)cc1)c1cc2ccccc2o1 | inconclusive: 25.9 µM [activator, partial curve, poor fit] | 
O=C(c1ccc(F)cc1)N1CCN(C2CCCCC2)CC1 | inconclusive: 20.6 µM [activator, single point] | 
CCOC(=O)c1[nH]c2c(c1C)C(=O)CC(c1ccc(F)cc1)C2 (stereo unspecified) | inconclusive: 1.64 µM [activator, full curve, poor fit] | 
COc1ccc(O)c(CN2CCC(n3nccc3NC(=O)CCOc3ccccc3)CC2)c1 | inconclusive: 18.4 µM [activator, single point] | 
COc1cccc(NC(=O)N2C3CCCC2CC(NC(=O)C(C)(C)C)C3)c1 (stereo unspecified) | inconclusive: 18.4 µM [activator, single point] | 
CC(C)c1nnc(NC(=O)c2nc(S(=O)(=O)Cc3ccccc3)ncc2Cl)s1 | inconclusive: 0.731 µM [activator, full curve] | 
NS(=O)(=O)c1cccc(NC(=O)COc2ncnc3c2cnn3-c2ccccc2)c1 |  | inactive: 3.33%
CCOC(=O)C1(CCCc2ccccc2)CCN(Cc2cn(CC)nc2C)CC1 | inconclusive: 20.6 µM [activator, partial curve, poor fit] | 
COc1cc2cc(c1Cl)N(C)C(=O)CC(OC(=O)C(C)N(C)C(C)=O)C1(C)OC1C(C)C1CC(O)(NC(=O)O1)C(OC)C=CC=C(C)C2 (stereo unspecified) |  | inconclusive: 111% [activator]
CC1(C)Oc2ccc(C#N)cc2[C@@H](N2CCCC2=O)[C@@H]1O | inactive | 
CC(C)CC(/C(O)=C(\C#N)c1nc2ccccc2[nH]1)N1C(=O)c2ccccc2C1=O (stereo unspecified) | inconclusive: 20.6 µM [activator, partial curve, poor fit] | 
COc1ccc(N(CC(=O)N/N=C/c2ccc(-c3ccc([N+](=O)[O-])cc3)o2)S(=O)(=O)c2ccc(C)cc2)cc1Cl | inconclusive: 6.51 µM [activator, full curve, poor fit] | 
Oc1ccc2ccccc2c1CNc1ccc2ccccc2c1 | inconclusive: 18.4 µM [activator, single point] | 
COc1ccc(OC)c(N2C(=NC(=O)C3CCCCC3)SC3CS(=O)(=O)CC32)c1 (stereo unspecified) | inconclusive: 0.164 µM [activator, full curve, poor fit] | 
Cc1ccccc1CS(=O)(=O)c1nnc([C@H](Cc2ccccc2)NC(=O)OC(C)(C)C)o1 | inconclusive: 18.4 µM [activator, single point] | 
Cc1ccc2c(c1)C(=O)N1[C@H]3c4cc(Cl)ccc4OC[C@@H]3[C@H](c3ccccc3)[C@]1(C)C(=O)N2 | inconclusive: 18.4 µM [activator, single point] | 
Cc1ccc(S(=O)(=O)Nc2cccc(-c3cn4ccsc4n3)c2)cc1 | inconclusive: 23.1 µM [activator, single point] | 
Cc1ccc2nc(-c3ccc(NC(=O)COC(=O)c4cncc(Br)c4)cc3)sc2c1 | inconclusive: 23.1 µM [activator, single point] | 
NC(=O)c1ccc(-c2nnc(Nc3ccc(S(N)(=O)=O)cc3)c3ccccc23)cc1 |  | inactive: 11.3%
CCC(=O)NCCc1nc2cc(NC(=O)c3ccccc3OC)ccc2n1C | inconclusive: 6.51 µM [activator, single point] | 
CCOCCCNC(=O)C(NC(=O)c1ccccc1O)c1ccc(Cl)cc1 (stereo unspecified) | inconclusive: 4.11 µM [activator, partial curve, poor fit] | 

SMILES | Potency | re-replication activation
CCN1C(=O)[C@H]2[C@@H](c3ccc(-c4cccc(Cl)c4)c(OC)c3)N[C@@](Cc3ccccc3)(C(=O)OC)[C@H]2C1=O | inconclusive: 29.1 µM [activator, single point] | 
Nc1nc(N)c(N=Nc2ccccc2)c(=O)[nH]1 | inconclusive: 29.1 µM [activator, single point] | 
CCS(=O)(=O)Nc1ccc(C2=NN(C(=O)c3ccco3)C(c3ccc(C)cc3)C2)cc1 (stereo unspecified) | inconclusive: 35.5 µM [activator, partial curve, poor fit] | 
Clc1ccc2[nH]c3c(c2c1)CCc1cn[nH]c1-3 | inconclusive: 23.1 µM [activator, single point] | 
CC(C)(C)c1ccccc1N=Cc1ccc2ccccc2n1 | inconclusive: 16.4 µM [activator, single point] | 
CC1(C)Cc2c(C#N)c(NCCO)nc(-c3ccco3)c2CO1 | active: 18.4 µM | 
COCc1c(C(=O)N2CCN(Cc3ccc4c(c3)OCO4)CC2)oc2ccccc12 | inconclusive: 29.1 µM [activator, single point] | 
Cc1nnn(-c2nonc2N)c1C(=O)N/N=C/c1cccc2ccccc12 | inconclusive: 29.1 µM [activator, single point] | 
CCOC(=O)Cc1[nH]nc2c1C(c1ccsc1)C(C#N)=C(N)O2 (stereo unspecified) |  | inactive: -5.82%
Cc1noc(C)c1COc1ccccc1C(=O)Nc1cccc(S(=O)(=O)N(C)C)c1 |  | inactive: -6.16%
CC(C)Cc1ccc(C(C)CC2=CCC(CN(C)C)C2=O)cc1 (stereo unspecified) | inconclusive: 18.4 µM [activator, single point] | 
O=c1nc2ccc(Cl)cn2c2ccc(S(=O)(=O)N3CCCCC3)cc12 | inconclusive: 8.2 µM [activator, partial curve] | 
CCOC(=O)c1[nH]c(C)c(C(=O)N2CCc3ccccc32)c1C | active: 0.517 µM | 
O=C(O)CCN1C(=O)/C(=C/c2ccc(-c3nc4ccccc4s3)o2)SC1=S |  | inactive: -6.99%
COc1ccc(CN2CCN(C(=O)c3cccc4ccccc34)CC2)cc1OC | active: 6.51 µM | 
Cc1ccc(NC(=O)C/C(N)=N/OC(=O)Nc2cccc(Cl)c2)cc1 | inconclusive: 29.1 µM [activator, single point] | 
COc1cc2c(cc1NC(=O)CN1CCN(S(=O)(=O)c3ccccc3F)CC1)oc1ccccc12 | inconclusive: 29.1 µM [activator, single point] | 
Cn1c(=O)c([N+](=O)[O-])c(-n2ccnc2)c2ccccc21 | inconclusive: 29.1 µM [activator, single point] | 
COc1ccc(/C(O)=C/C(=O)C(=O)NNC(=O)c2ccccc2)cc1 | inconclusive: 29.1 µM [activator, single point] | 
CC1CCN(CCCNC(=O)C2CCN(S(=O)(=O)N3CCC4(CC3)OCCO4)CC2)CC1 |  | inactive: -9.07%
CCc1ccc(-c2cc(C)no2)cc1S(=O)(=O)N1CCN(c2ccc(C(C)=O)cc2)CC1 | inconclusive: 11.2 µM [activator, single point] | 

SMILES | Potency | re-replication activation
Cc1ccc(S(=O)(=O)N2CCCC2CNC(=O)C(=O)Nc2ccc(F)cc2)cc1 (stereo unspecified) | inconclusive: 18.4 µM [activator, single point] | 
CC(C)NC(=NCc1ccc(Cl)cc1Cl)Nc1ccccc1 | inconclusive: 18.4 µM [activator, single point] | 
O=C(Cc1cccs1)NNC(=S)NCc1ccco1 |  | inactive: 2.95%
Nc1nc(-c2ccccc2)c(CCCNc2ccccc2)c(=O)[nH]1 | inconclusive: 29.1 µM [activator, partial curve, poor fit] | 
CCCn1nc(NC(=O)C2CCCO2)c2cc3ccc(C)cc3nc21 (stereo unspecified) | inconclusive: 16.4 µM [activator, single point] | 
CN(CC(=O)Nc1cccc(C#N)c1)Cc1ccc(Cl)cc1 | inconclusive: 29.1 µM [activator, partial curve, poor fit] | 
Cc1noc(C)c1S(=O)(=O)Nc1ccc2c(c1)C(=O)N([C@H](C)CO)C[C@@H](C)[C@@H](CN(C)Cc1ccc3c(c1)OCO3)O2 |  | inactive: -35.7%
CCNc1nc(CC)nc2c1oc1ccccc12 |  | inactive: -6.61%
COc1ccc2c(c1)OC[C@H]1[C@H]2N2C(=O)c3cc(OC)ccc3NC(=O)[C@@]2(C)[C@H]1c1ccccc1 | inconclusive: 20.6 µM [activator, single point] | 
COc1ccc(C(=O)COC(=O)C2CCN(c3ccc(C(F)(F)F)cn3)CC2)c(OC)c1 |  | inactive: 4.15%
Cc1nn(CCC#N)c(N)c1C1(O)C(=O)Nc2c(Cl)cc(Cl)cc21 (stereo unspecified) | inconclusive: 16.4 µM [activator, single point] | 
COCC(=O)N(CCc1ccc(OC)c(OC)c1)Cc1nc2ccccc2c(=O)[nH]1 | inconclusive: 0.651 µM [activator, full curve, poor fit] | 
COc1ccc(S(=O)(=O)N2CCC(C)CC2)cc1N(C)S(=O)(=O)c1ccccc1 | inconclusive: 20.6 µM [activator, partial curve, poor fit] | 
COC(=O)c1cc(CSc2nnc(-c3ccccc3)c(-c3ccccc3)n2)oc1C | inconclusive: 18.4 µM [activator, partial curve, poor fit] | 
CCOC(=O)C(=Cc1c[nH]c2ccc(S(=O)(=O)N(C)C)cc12)C(=O)OCC |  | inactive: 11.5%
COc1cccc(CN(C(=O)c2cc3ccccc3oc2=O)C2CC2)c1 | inconclusive: 6.51 µM [activator, single point] | 
Cc1ccc(CSc2ncnc3onc(C)c23)cc1 |  | inactive: -16.2%
CCN(CCn1cccn1)C(=O)c1cc(COc2cccc3cccnc23)on1 | inconclusive: 5.62 µM [activator, single point] | 
C=C(NC(=O)C(=C)NC(=O)c1csc(C2=N[C@@H]3c4csc(n4)[C@@H]4NC(=O)c5csc(n5)[C@@H]([C@](C)(O)[C@H](C)O)NC(=O)[C@@H]5CSC(=N5)/C(=C/C)NC(=O)[C@@H]([C@H](C)O)NC(=O)c5csc(n5)[C@]3(CC2)NC(=O)[C@@H](C)NC(=O)C(=C)NC(=O)[C@@H](C)NC(=O)[C@@H]([C@@H](C)CC)N[C@H]2C=Cc3c([C@H](C)O)cc(nc3[C@@H]2O)C(=O)O[C@H]4C)n1)C(N)=O | active: 7.18 µM | 

Fetched one by one from the entries so far:
SMILES | Potency | re-replication activation
O=C(O)CCN1C(=O)/C(=C/c2ccc(-c3nc4ccccc4s3)o2)SC1=S |  | inactive: -6.99%
Cc1noc(C)c1S(=O)(=O)Nc1ccc2c(c1)C(=O)N([C@H](C)CO)C[C@@H](C)[C@@H](CN(C)Cc1ccc3c(c1)OCO3)O2 |  | inactive: -35.7%

Exported as tab-separated lines: entries from further up
SMILES	Potency	re-replication activation
CCOC(=O)Cc1[nH]nc2c1C(c1ccsc1)C(C#N)=C(N)O2 (stereo unspecified)		inactive: -5.82%
COc1ccc(CN2CCN(C(=O)c3cccc4ccccc34)CC2)cc1OC	active: 6.51 µM	
